The values that follow come from PubChem BioAssay AID1347423 (Functional Genomics Laboratory (NCATS/FGL), 2020).

About 210 (0.4%) of roughly 52,000 sequences were called active.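 The calls were made as follows: active = gene whose silencing raises cell survival under the drug, median off-target-corrected z-score across its silencing RNAs 2 or more; inactive = the rest.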 The list shows a part of the results.

This assay can be described thus: Resistance to Poly (ADP-Ribose) Polymerase inhibitor: Gene Identification via Genome-wide siRNA Screen. To be noted: mouse BRCA2 R2336H ES cells, olaparib, CellTiter-Glo viability; stronger effect = higher value. An outline of the steps:
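Mouse BRCA2 R2336H ES cells were reverse-transfected with siRNA (20 nM final), treated at 48 h with 500 nM olaparib, and read by CellTiter-Glo after 72 h. Scores: MAD-based z per siRNA, median per gene, seed off-target correction.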
A general note: ATP-based viability assays read luminescence as a measure of living cells.
With CCUCAUCACUCAUAGCAGATT against Gfi1, the z-score is inactive: -1.33.
With “GGCAUUGAAGGAAGUGAUCTT against 1810042K04Rik”, the z-score was inactive: 0.123.
Regarding “GGACCUUUCUCAACUACUATT against 9530090G24Rik”, the z-score is inactive: -0.829.
Take “GGCGUAAACAUGGUGUGCATT against A130052D22”: the z-score was inactive: -2.48.
As to GCAAAAUAGCCAGUUAAUGTT against Strn, the z-score is inactive: 0.661.
With GGAAACCUUUUACCUUUAATT against Padi1, the z-score is inactive: 0.0441.
Turning to CGGGUAUGCCUUAUGUUGATT against Etnk2, the z-score is inactive: 0.272.
As for UCUCCAUAUCCUAUGGAAGTT against Olfr813, the z-score was inactive: 1.36.
Turning to GCACGUACGAAGCAAGUAATT against Gm14, the z-score is inactive: -1.22.
Regarding GGGAUCAGGCCAUUUCCAUTT against Vav2, the z-score was inactive: -0.697.
In the case of GGUUUUGCUCUCUAUUUGUTT against Ube2e3, the z-score is inactive: -0.131.
For the sequence “GGUGUCAGAAAUUUCCAUATT against 9030221M09Rik”, the z-score is inactive: 0.485.
Consider GGCUCUCACACUCAAGUAUTT against Srpr, for which the z-score is inactive: 1.02.
Consider GGGUACCUGUGGUUUUUGUTT against Cecr5, for which the z-score is inactive: 0.104.
In the case of GGGUUCAUUUCUCACCUCCTT against Bcl7b, the z-score is inactive: -0.914.
As for GGAAAUGACACUUAUUGAATT against Ndst4, the z-score is inactive: 1.01.
For CCGUCGUGGAGCCAUUAAATT against Prkcd, the z-score was inactive: -0.609.
With “GGAAGGGCAUCCACUUUGATT against 1110007H17Rik”, the z-score was inactive: -1.01.
Take “CCUUCACUCUGUAAGGUGCTT against 1110007C09Rik”: the z-score was inactive: -1.14.
The value for “GCCCUCACAGCCAGAAUUGTT against 4632424B03Rik” was inactive: 1.06; that for GGACACUUGAUAAAUCUUCTT against Lace1 was inactive: 1.09.
Take GGGCAAAGUGAUUGGCAUATT against Amid: the z-score is inactive: 0.2.
For the sequence GGCAGCUGAAGAUUAUGGATT against Tagln, the z-score was inactive: 2.21.
As to GGUAUGCUAACAGAACACGTT against Nr1h4, the z-score is inactive: 0.175.
In the case of “GGGACAGAUGGUCGAUGAATT against E130308A19Rik”, the z-score was inactive: -1.26.
Under GGACCAGUUAAAGUGGCAGTT against Oas1e stands inactive: 0.461; under GACUUCAGGCACACAUUGCTT against Cdc42ep5, inactive: -0.904; under GCACCUUUGCAUAUCUAAATT against Olfr115, inactive: -0.487.
As to GGAAGAGCAAAUAUGAGAATT against Syp, the z-score is inactive: 0.0265.
As to GCGUGUUCAACACCAACUUTT against Rdh8, the z-score was inactive: 0.744.
Regarding GAACUGGAAUGCCUGAUGGTT against Rslcan24, the z-score was inactive: -2.19.
Take UAUCCUAUGGCUUUCCUGGTT against Olfr485: the z-score is inactive: 0.238.
The value for GGUUCUGCUGUACUCCUUGTT against Wdr8 was inactive: -0.823.
Under GGAGAUAGAGACCCUAGUGTT against Tas2r124 stands inactive: -0.827.
In the case of GGAAAACAACGAAUUGCUCTT against C80913, the z-score is inactive: -0.142.
Consider GGCAGUUCGUCAGCUUCAUTT against Bhmt, for which the z-score was inactive: -1.29.
Take GGAUGCUAUAAAGAAUGCCTT against Prpf39: the z-score is inactive: 1.72.
On to GGAAUAUUAUGGGUAUCGATT against Cacna1s, for which the z-score was inactive: -0.443.
Take GGCUCCGAGAAAUGCAAUCTT against Mmp13: the z-score is inactive: 0.896.
For GGAGUCACUCACAUUGUGGTT against Poll, the z-score was inactive: -1.6.
For the sequence CCAUUAUGAUUUAUGCUCCTT against Kcnmb4, the z-score is inactive: 0.159.
As to GGUAGUCAUACAGAUAUGUTT against Hey2, the z-score is inactive: 1.05.
As for GAGCAUCCGCUACUUGGUATT against Nmnat1, the z-score was inactive: -0.726.
The value for GGAGGAUGGUGCCAACAUUTT against Psmc3 was inactive: -1.14; that for GGAACAUGUAGAAGGUCCATT against Slc9a3r2 was inactive: 0.965; that for “GGAUUUCUUCUUUAUCAAGTT against 4933403H06Rik” was inactive: 0.967.
The value for GGAGGAAAGAAAAGAUCCATT against Tie1 was inactive: 0.484; that for “CCAAUUCCCAAAAUUAGCCTT against A930026L03Rik” was inactive: 1.23; that for GGACAUUCCUGUUGAUAAUTT against Kcnj8 was inactive: -0.552.
Turning to CGUGAACAUUGACCCAGAATT against Clm3, the z-score is inactive: -1.2.
As to “GGCAAACCAGUGUUCCCUATT against 1810009M01Rik”, the z-score was inactive: -0.229.
Regarding “GGGCAUUUUGAUGCUUACGTT against 1700034I23Rik”, the z-score was inactive: -0.368.
As to GGCUUCGACUGUUGAGAUUTT against 2-Sep, the z-score is inactive: 1.23.
For GGAAUCCUUCACUGAUGAATT against Pilrb, the z-score is inactive: -0.768.
Consider GGGACUUUCAUAAUGCCAGTT against Snip1, for which the z-score was inactive: 0.733.
As for GGAGGAAGAGGAGAAUCUATT against Supt6h, the z-score is inactive: -2.46.
Regarding GGAGCCCAGGAAGAUGACATT against Cyp2c54, the z-score was inactive: -0.806.
Turning to GCUGAUAAGGAGGUACCAUTT against Igf2r, the z-score was inactive: 0.147.
On to GGACACAACAAGAAAUUCUTT against Suclg1, for which the z-score was inactive: -0.812.
Regarding “GGCAUUAGCUACCUGGACATT against 1700013G24Rik”, the z-score is inactive: 0.995.
The value for GGAGAAAACCUAGAAAUUUTT against Galnt1 was inactive: 1.07; that for “GUCUACCUUGUUUAUGACCTT against 2410015M20Rik” was inactive: -0.502.
As for GCGAAUCGCACAGGAUCUUTT against Hps4, the z-score was inactive: -1.74.
For GAACUCAAAGAAUAAAUCCTT against Ms4a6d, the z-score was inactive: 0.877.
With “GCCUACACCAGUCCUUUGATT against 1300006M19Rik”, the z-score was inactive: -0.984.
On to GCAAGCUUCAAGAAGUAAGTT against Cenph, for which the z-score is inactive: -0.148.
Regarding GCAAGCACGGAGAACCAAUTT against D5Wsu178e, the z-score was inactive: -2.03.
GGAAGGCCGAGAAGAAUUCTT against Myst1: the z-score is inactive: 0.387.
The value for CGUGAUCAAAACUCACAUGTT against BC010801 was inactive: -0.578; that for GGUUUAUGGAGCAAGUGAUTT against Actr3 was inactive: -1.76; that for GGUCGUAUGGUGCUCAAGATT against Pira1 was inactive: -1.25.
Consider “GGGAAGAGAAUGAUUAAAUTT against 9630048M01Rik”, for which the z-score was inactive: 0.339.
With GGAAGAAUGUGGAGGCUAUTT against Tnni1, the z-score was inactive: -0.564.
On to GGAGAAGUAGAUGUAUAUGTT against Prkar1b, for which the z-score was inactive: -0.118.
Consider GCUCUUUUAAUAUCACUGCTT against Heyl, for which the z-score is inactive: -0.217.
The value for GGUCUGUGCAAGCAAAUCGTT against Cacng2 was inactive: -0.21; that for CGACUUCAUAAGGUAUGCATT against Tnfrsf22 was inactive: 0.676.
Take GGAACAGUUCAAGUGAAGCTT against Sertad2: the z-score was inactive: -0.407.
For the sequence ACUGGAUACUCCACUCAACTT against Olfr46, the z-score is inactive: 0.172.
As to “GGAUUUGGCAAAAUCUUCCTT against 2810441O16Rik”, the z-score is inactive: 0.329.
Consider GGGAGAGUGGAUCAUCAAUTT against P2ry10, for which the z-score was inactive: 1.94.
Take GGUUAAGGAUGCUCAAGUATT against Krt20: the z-score was inactive: 1.02.
With GGGCGGUAAAGAUUUCCUUTT against Scn3b, the z-score was inactive: 1.4.
For the sequence “GGAAAUAGAUCCUUUUUGATT against 2510039O18Rik”, the z-score is inactive: -0.247.
For the sequence CCGCAUGUAUCAUAUCAAATT against Dhx37, the z-score was inactive: -1.16.
Consider CCGUACCUACAAGUUCACUTT against MGC58365, for which the z-score is inactive: 0.0574.
For the sequence GGCUAGAUCCAAUGCUUCUTT against Dlgap1, the z-score is inactive: -0.697.
On to GGUGCACUUUGAAUCAGGGTT against Uchl4, for which the z-score is inactive: -0.391.
Regarding “GGCUUCAAAACAUUUUCAGTT against 1110028C15Rik”, the z-score was inactive: 0.588.
For GGAGUGUAUUAAGAUUUCUTT against AA407526, the z-score is inactive: -0.323.
For the sequence GGUGAGAAUUUGAGAAAGATT against Dgka, the z-score was inactive: -1.14.
For the sequence GGAGGAAAAGGAAAGAGAATT against Fgd1, the z-score is inactive: -1.32.
For “GCUAUACCAGGAGGUAGAUTT against E130112L23Rik”, the z-score is inactive: 1.56.
On to GGGUAGUUGUUACUGUUGUTT against Sprr2f, for which the z-score was inactive: -0.12.
Consider GGCUGCUUAGCUUUAAUGGTT against Gm1568, for which the z-score was inactive: 0.354.
On to “GGGUUCACCUUGACAUCCATT against 2400003B06Rik”, for which the z-score was inactive: 1.95.
Turning to “GGACACAAUUAUGAGAACATT against C130090K23Rik”, the z-score is inactive: -1.31.
Take GCCUCAUAAAUAACGUGAATT against Nts: the z-score was inactive: 0.51.
Take GGUUAACACCUUCAUGUCCTT against Ntsr1: the z-score was inactive: 0.0199.
Consider GGAAGCCUUUCAGAAGACCTT against Akr1b8, for which the z-score was inactive: 0.0699.
Under GCGAUUAAGAGCACUUGACTT against Aoc2 stands inactive: 0.0892.
As for GCUUCACCAGAGAUGGAAUTT against Slfn3, the z-score was inactive: 1.25.
Consider GCAAACAGCUAGUAAAAUGTT against Pscd3, for which the z-score is inactive: -0.86.
For the sequence GCUGGGAAGACGUAUGAGGTT against Snx9, the z-score is inactive: 0.173.
